Measurements from PubChem BioAssay AID504467 (National Center for Advancing Translational Sciences (NCATS), 2011).
Screen size: about 330,000 compounds; about 7,700 (2.3%) were called active. Inconclusive results, whose numbers are uncertain, are shown with a selection of clear calls. Calls come from the whole dose curve; as a rule, active = well fitted inhibition curve with a large enough effect; inconclusive = small, poorly fitted or top-dose-only effect, or effect the other way; inactive = flat fitted curve, though single readings scatter. Where the call is inconclusive, the potency comes from a doubtful curve fit.

Test: qHTS screen for small molecules that inhibit ELG1-dependent DNA repair in human embryonic kidney (HEK293T) cells expressing luciferase-tagged ELG1; note: nearly all actives have a fitted effect of over 55% in size
Conditions: HEK293T ELG1-luciferase reporter, luminescence, 16 h, DNA damage induced by 5-fluorouridine; series mostly up to 46.1 µM
Summary of the method: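 Overnight (16 hr) co-exposure of 2,000 cells/well to 5-fluorouridine and compound at 37 °C preceded detection. Luciferase was quantified via ONE-Glo luminescence; loss of signal denotes inhibition.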
Potency is the fitted concentration of half-maximal effect.

Row | Compound | Potency
1 | CCc1cc(C(=O)N(C)CC(=O)Nc2c(Cl)cccc2Cl)sc1C | inactive
2 | CCSc1nnc(-c2ccc(S(=O)(=O)NCc3cccs3)cc2)o1 | inconclusive: 23.1 µM [inhibitor, partial curve, poor fit]
3 | COc1nnc(-c2ccccc2)s1 | inconclusive: 25.9 µM [activator, single point]
4 | O=c1/c(=C\c2cccn2-c2ccccc2)sc2nc3ccccc3n12 | inconclusive: 2.31 µM [activator, partial curve]
5 | CCN(CC)S(=O)(=O)c1ccc2oc(Nc3ccc4c(c3)OCCO4)nc2c1 | inconclusive: 29.1 µM [inhibitor, single point]
6 | O=C(CN1CCN(S(=O)(=O)c2ccccc2)CC1)N1CCCCC1 | inconclusive: 25.1 µM [activator, partial curve, poor fit]
7 | Fc1ccc2c(c1)C1C=CCC1C(c1cc3c(cc1Br)OCO3)N2 (stereo not drawn) | inactive
8 | Cc1ccccc1NC(=O)c1sc2nc3c(c(-c4ccco4)c2c1N)CCCC3 | inconclusive: 23.1 µM [inhibitor, single point]
9 | O=C(O)COCC(=O)NCc1csc2ccccc12 | inactive
10 | COc1ccc(-c2cc(C(=O)NCC3CCCO3)on2)cc1OC (stereo not drawn) | inconclusive: 23.1 µM [activator, partial curve, poor fit]
11 | COC(=O)C1=C(NC(=O)COc2ccc(Cl)cc2Cl)CCS1 | inconclusive: 7.31 µM [activator, partial curve]
12 | Cc1cccc(C(=O)O/N=C(\N)c2ccc(Br)cc2)c1 | inconclusive: 16.4 µM [activator, partial curve]
13 | O=C(c1cc(-c2ccc(Cl)cc2)on1)N1CCOCC1 | inconclusive: 5.01 µM [activator, partial curve]
14 | N#Cc1c(C#N)c(-c2ccccc2)n(-c2ccccc2)c1N | inconclusive: 29.1 µM [inhibitor, single point]
15 | COc1ccc(NC(=O)N2CCc3ccccc3C2)cc1 | inconclusive: 16.4 µM [activator, partial curve]
16 | CCc1ccc(S(=O)(=O)NC(=S)Nc2ccccc2)cc1 | inactive
17 | COc1ccc(/C=C(/NC(=O)c2ccccc2OC)C(=O)Nc2ccc(C(=O)O)cc2)cc1 | inactive
18 | O/N=C(\C[n+]1ccccc1)c1ccc(Br)cc1 | inconclusive: 11.6 µM [inhibitor, partial curve, poor fit]
19 | COc1cc(OC)cc(C(=O)NCC(=O)Nc2ccc(-c3ccccc3)cc2)c1 | inconclusive: 18.3 µM [activator, partial curve]
20 | N/C(=N\OC(=O)c1ccc(F)cc1)c1ccc(Br)cc1 | inconclusive: 18.3 µM [activator, partial curve]
21 | COc1ccc(OCc2cc(C(=O)N3CCC(c4ccccc4)CC3)no2)c(Cl)c1 | inactive
22 | CCn1cc(C(c2ccccc2)C(C(C)=O)[N+](=O)[O-])c2ccccc21 (stereo not drawn) | inconclusive: 23.1 µM [inhibitor, single point]
23 | O=C(Nc1cccnc1)c1ccc(Cl)c(Cl)c1 | inconclusive: 20.6 µM [activator, partial curve]
24 | O=C(COc1ccc(Cl)cc1Cl)Nc1ccc(-c2ccc(N3CCOCC3)nn2)cc1 | inactive
25 | O=C(NC(=S)Nc1ccc2c(c1)OCCO2)c1ccccc1 | inconclusive: 1.46 µM [activator, full curve]

Row | Compound | Potency
26 | COc1ccc(NC(=O)/C(C#N)=C\c2ccc(N3CCOCC3)o2)cc1 | inconclusive: 2.59 µM [activator, full curve, poor fit]
27 | NC(=O)C1CCN(c2ccc(S(=O)(=O)N3CCCCC3)cn2)CC1 | inconclusive: 23.1 µM [inhibitor, partial curve, poor fit]
28 | O=C(O)CCC(=O)NNC(=O)c1ccc(-c2ccccc2)cc1 | inactive
29 | COc1ccc(-c2nnc(N(C)C(=O)C3CCCO3)s2)cc1 (stereo not drawn) | inconclusive: 16.4 µM [activator, partial curve]
30 | O=C(Cc1ccc(Cl)cc1)NCCCNC(=O)c1cccnc1 | inconclusive: 20.6 µM [inhibitor, single point]
31 | CCCCC[C@H](O)/C=C/[C@H]1CCC(=O)[C@@H]1CCCCCCC(=O)N1CCCCC1CO (stereo partly drawn) | inconclusive: 9.2 µM [inhibitor, partial curve]
32 | COc1ccc(S(=O)Cc2ccc(C(=O)N3CCN(c4cccc(C)c4C)CC3)o2)cc1 (stereo not drawn) | inconclusive: 6.51 µM [inhibitor, partial curve, poor fit]
33 | CC1CCCCC1NC(=S)Nc1ccc(SC(F)F)cc1 (stereo not drawn) | inconclusive: 29.1 µM [inhibitor, single point]
34 | CC(C)Oc1ccc(C(=O)NC2=NCCS2)cc1 | inconclusive: 2.59 µM [activator, partial curve]
35 | CCN1C(=O)/C(=C2\SC(=S)N(NC(=O)c3ccccc3O)C2=O)c2ccccc21 | inconclusive: 25.9 µM [inhibitor, single point]
36 | Cc1cc(C(=O)Nc2cccc(C)c2C)n(-c2ccccc2)n1 | inconclusive: 18.3 µM [activator, single point]
37 | CCOC(=O)N1CCN(Cc2nc(-c3ccccc3)no2)CC1 | inconclusive: 20.6 µM [activator, single point]
38 | CCOC(=O)c1ccc(Nc2ncnc3ccccc23)cc1 | inconclusive: 32.6 µM [inhibitor, single point]
39 | Clc1ccc2nc(COc3ccccc3)[nH]c2c1 | inconclusive: 5.62 µM [activator, single point]
40 | COc1ccc(C(CNC(=O)CNC(=O)c2ccc(F)cc2)N2CCCC2)cc1 (stereo not drawn) | inconclusive: 35.5 µM [activator, single point]
41 | Cc1ccc(NC(=O)CS(=O)c2ccccc2N)c(C)c1 (stereo not drawn) | inconclusive: 20.6 µM [activator, partial curve]
42 | Cc1cc(C2=NNC(=Nc3ccc(S(=O)(=O)N4CCOCC4)cc3)SC2)c(C)n1C | inactive
43 | Cc1ccc(SCc2cn3ccccc3n2)cc1 | inconclusive: 2.59 µM [activator, full curve]
44 | Cc1ccc(-c2nc(CCNC(=O)c3ccco3)cs2)cc1 | inconclusive: 25.9 µM [inhibitor, single point]
45 | CCOC(=O)[C@@H]1[C@H]2COc3ccccc3[C@@H]2N2C(=O)N(c3cccc(F)c3)C(=O)[C@@]12C | inconclusive: 16.4 µM [activator, partial curve, poor fit]
46 | COc1ccc(Cl)cc1NC(=S)N(Cc1cccnc1)Cc1ccco1 | inconclusive: 20.6 µM [inhibitor, single point]
47 | COc1cc(NC(=O)C2CCCN(S(=O)(=O)c3ccc4c(c3)CCCN4C(C)=O)C2)cc(OC)c1 (stereo not drawn) | active: 9.2 µM
48 | C/C=C/c1ccc(OCc2cc(=O)n3cc(C)ccc3n2)c(OC)c1 | inactive
49 | CC1CCN(C(=O)c2ccccc2NC(=O)Cc2ccccc2)CC1 | inconclusive: 29.1 µM [activator, single point]
50 | COCCOC(=O)C1=C(C)NC(=O)NC1c1cc2c(cc1Br)OCO2 (stereo not drawn) | inconclusive: 29.1 µM [activator, single point]

4 entries from above, as labelled records.
CCCCC[C@H](O)/C=C/[C@H]1CCC(=O)[C@@H]1CCCCCCC(=O)N1CCCCC1CO (stereo partly drawn)
  Potency: inconclusive: 9.2 µM [inhibitor, partial curve]
COc1ccc(S(=O)Cc2ccc(C(=O)N3CCN(c4cccc(C)c4C)CC3)o2)cc1 (stereo not drawn)
  Potency: inconclusive: 6.51 µM [inhibitor, partial curve, poor fit]
CC1CCCCC1NC(=S)Nc1ccc(SC(F)F)cc1 (stereo not drawn)
  Potency: inconclusive: 29.1 µM [inhibitor, single point]
CC(C)Oc1ccc(C(=O)NC2=NCCS2)cc1
  Potency: inconclusive: 2.59 µM [activator, partial curve]

Continuation.

Row | Compound | Potency
51 | O=C(O/N=C1\CCCc2ccccc21)c1cccc(Cl)c1 | inactive
52 | c1ccc(C(c2ccccc2)N2CCN(C(c3ccccn3)c3nnnn3C3CCCC3)CC2)cc1 (stereo not drawn) | inactive
53 | Cc1cccc(OCC(=O)NCC(=O)N/N=C/c2cc(Br)cc(Br)c2O)c1 | inconclusive: 2.91 µM [inhibitor, single point]
54 | O=S(=O)(/C=C/c1ccccc1)Nc1ccc2c(c1)OCO2 | inactive
55 | Cc1sc2ncnc(N3CCCCC3C)c2c1C (stereo not drawn) | inconclusive: 23.1 µM [inhibitor, partial curve]
56 | CC1(C)CC(=O)C(N=Nc2cccnc2)=C(O)C1 | inactive
57 | CCn1c(=O)c(=O)[nH]c2cc(C(=O)NCc3ccc(F)cc3)ccc21 | inactive
58 | Cc1ccc(/C=C(\C#N)C(=O)NC(C)c2ccccc2)o1 (stereo not drawn) | inactive
59 | Cc1[nH]c2ccccc2c1CC#N | inactive
60 | COc1ccc(C(=O)OCC(=O)NC2CCCC2)c(OC)c1 | inconclusive: 20.6 µM [activator, single point]
61 | CC(C)(C)N1CCC1CN (stereo not drawn) | inactive
62 | Cc1ccnc(NC(=S)N2CCN(c3cccc(C(F)(F)F)c3)CC2)c1 | inactive
63 | CC(C)c1cc(Br)ccc1OCCCN1C(=O)NC(C)(C)C1=O | inconclusive: 20.6 µM [inhibitor, partial curve, poor fit]
64 | Cc1nn(C2CCS(=O)(=O)C2)c2nc(C3CC3)cc(C(=O)Nc3ccc(C(N)=O)cc3)c12 (stereo not drawn) | inactive
65 | COc1ccccc1N1CCN(/N=C/c2ccc(O)c(O)c2)CC1 | inactive
66 | Cc1ccc(NC(=O)N2CCSc3ccccc32)cc1 | inconclusive: 8.2 µM [activator, partial curve]
67 | CSc1ccccc1C(=O)Nc1ccccc1C(=O)NC(C)C | inactive
68 | c1csc(CNc2ncnc3nc[nH]c23)c1 | inactive
69 | Clc1cccc(Cl)c1CO/N=C/c1c(-c2ccccc2)nc2n1CCS2 | inactive
70 | COc1ccc2nc(NC(=O)c3ccc(NS(=O)(=O)c4cccs4)cc3)sc2c1 | inconclusive: 32.6 µM [inhibitor, partial curve, poor fit]
71 | COc1ccc(CCNC(=O)C(=O)NCC2CCCN2S(=O)(=O)c2cccs2)cc1OC (stereo not drawn) | inconclusive: 25.9 µM [inhibitor, single point]
72 | C/C(=N\NC(=O)c1sccc1C)c1ccncc1 | inconclusive: 13 µM [activator, partial curve]
73 | O=C(CCC(=O)N1CCOCC1)NCCc1ccc(F)cc1 | inactive
